Measured values from paper PMC8612609.
Results are given in words; binding and its absence hold for the method and conditions named. For part of these data: In cells and extracts the contact can be indirect. Some binding calls cover weakened binding; strength is not graded here. For part of these data: Tags and fused reporters may be left off the sequences shown.

Amino acid sequences for entries named in this document (tags omitted).
UniProt O94992: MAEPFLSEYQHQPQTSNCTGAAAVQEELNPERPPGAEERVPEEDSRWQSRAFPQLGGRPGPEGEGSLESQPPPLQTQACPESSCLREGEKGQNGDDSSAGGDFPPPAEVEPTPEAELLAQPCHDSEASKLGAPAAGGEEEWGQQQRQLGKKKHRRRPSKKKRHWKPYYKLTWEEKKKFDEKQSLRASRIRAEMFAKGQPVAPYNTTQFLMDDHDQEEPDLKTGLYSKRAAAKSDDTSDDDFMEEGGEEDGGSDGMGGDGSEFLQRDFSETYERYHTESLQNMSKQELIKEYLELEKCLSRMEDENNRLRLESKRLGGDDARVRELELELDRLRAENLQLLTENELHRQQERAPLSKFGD

Experiments:
[1] = target: purified recombinant HEXIM1 protein (UniProt O94992); assay: SDS-PAGE and Western blot (monomer and dimer bands); data not shown; purified recombinant HEXIM1 treated with or without GSH; both purified
[2] = target: HEXIM1, endogenous (human (endogenous in 293T)) (UniProt O94992); assay: SDS-PAGE and Western blot (monomer and dimer bands); 293T lysates (whole cell, cytosol, nuclear matrix, chromatin-binding, nuclear) of cells with Tip110 over-expression or knockdown or treated with 100 uM GSH for 2 hr; sample buffer with or without DTT; Western blot with anti-HEXIM1
[3] = target: Cerulean.HEXIM1 and Venus.HEXIM1 (two differently tagged copies of wild-type HEXIM1) (UniProt O94992); assay: FRET or BRET; sensitized emission FRET microscopy in HeLa 48 hr after transfection of Cerulean-HEXIM1 and Venus-HEXIM1 with Tip110, sh-Tip110 or controls; normalized FRET (NFRET) by PixFRET
[4] = target: T1, Flag-tagged MEPCE (methylphosphate capping enzyme) (UniProt Q7L2J0); assay: co-IP; 293T transfected with pMEPCE.Flag; whole cell lysates, IP with anti-Flag antibody (isotype IgG and pcDNA3 as controls), Western blot with anti-Tip110
T1 sequence: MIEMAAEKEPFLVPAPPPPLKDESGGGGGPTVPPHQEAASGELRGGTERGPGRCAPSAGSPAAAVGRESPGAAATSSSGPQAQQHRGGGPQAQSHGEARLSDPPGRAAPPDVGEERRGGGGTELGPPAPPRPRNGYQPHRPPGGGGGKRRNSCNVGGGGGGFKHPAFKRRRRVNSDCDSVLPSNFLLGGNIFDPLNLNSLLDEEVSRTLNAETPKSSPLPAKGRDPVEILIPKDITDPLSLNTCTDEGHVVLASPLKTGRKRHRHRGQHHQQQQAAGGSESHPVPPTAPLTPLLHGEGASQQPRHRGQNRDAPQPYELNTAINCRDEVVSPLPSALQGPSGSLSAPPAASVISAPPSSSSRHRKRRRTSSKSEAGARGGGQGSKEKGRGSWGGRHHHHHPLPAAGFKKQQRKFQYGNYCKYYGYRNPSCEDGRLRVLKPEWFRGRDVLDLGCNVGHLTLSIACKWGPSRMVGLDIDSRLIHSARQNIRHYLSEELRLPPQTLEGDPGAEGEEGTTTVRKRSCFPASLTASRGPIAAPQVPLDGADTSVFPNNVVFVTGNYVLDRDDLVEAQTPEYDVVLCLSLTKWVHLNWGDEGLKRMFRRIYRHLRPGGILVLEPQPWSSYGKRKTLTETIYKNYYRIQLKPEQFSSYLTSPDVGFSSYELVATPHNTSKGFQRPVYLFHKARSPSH

[5] = target: T2, GST-MEPCE fusion protein (UniProt Q7L2J0); assay: pull-down; GST pulldown: 2.5 μg GST or GST-MEPCE with 2.5 μg Tip110.His in 500 μl Binding Buffer (20 mM HEPES pH 7.9, 150 mM NaCl, 0.5 mM EDTA, 10% glycerol, 0.1% Triton X-100, 1 mM DTT), glutathione agarose beads; washes with 0.4 M NaCl; Western blot with anti-His; both purified
T2 sequence: T1 sequence

[6] = target: T3, recombinant Tip110 His (UniProt Q15020); assay: pull-down; His pulldown: 2.5 μg GST or GST-MEPCE with 2.5 μg Tip110.His in 500 μl Binding Buffer (20 mM HEPES pH 7.9, 150 mM NaCl, 0.5 mM EDTA, 10% glycerol, 0.1% Triton X-100, 1 mM DTT), Ni-NTA agarose beads; washes with 0.4 M NaCl; Western blot with anti-GST; both purified
T3 sequence: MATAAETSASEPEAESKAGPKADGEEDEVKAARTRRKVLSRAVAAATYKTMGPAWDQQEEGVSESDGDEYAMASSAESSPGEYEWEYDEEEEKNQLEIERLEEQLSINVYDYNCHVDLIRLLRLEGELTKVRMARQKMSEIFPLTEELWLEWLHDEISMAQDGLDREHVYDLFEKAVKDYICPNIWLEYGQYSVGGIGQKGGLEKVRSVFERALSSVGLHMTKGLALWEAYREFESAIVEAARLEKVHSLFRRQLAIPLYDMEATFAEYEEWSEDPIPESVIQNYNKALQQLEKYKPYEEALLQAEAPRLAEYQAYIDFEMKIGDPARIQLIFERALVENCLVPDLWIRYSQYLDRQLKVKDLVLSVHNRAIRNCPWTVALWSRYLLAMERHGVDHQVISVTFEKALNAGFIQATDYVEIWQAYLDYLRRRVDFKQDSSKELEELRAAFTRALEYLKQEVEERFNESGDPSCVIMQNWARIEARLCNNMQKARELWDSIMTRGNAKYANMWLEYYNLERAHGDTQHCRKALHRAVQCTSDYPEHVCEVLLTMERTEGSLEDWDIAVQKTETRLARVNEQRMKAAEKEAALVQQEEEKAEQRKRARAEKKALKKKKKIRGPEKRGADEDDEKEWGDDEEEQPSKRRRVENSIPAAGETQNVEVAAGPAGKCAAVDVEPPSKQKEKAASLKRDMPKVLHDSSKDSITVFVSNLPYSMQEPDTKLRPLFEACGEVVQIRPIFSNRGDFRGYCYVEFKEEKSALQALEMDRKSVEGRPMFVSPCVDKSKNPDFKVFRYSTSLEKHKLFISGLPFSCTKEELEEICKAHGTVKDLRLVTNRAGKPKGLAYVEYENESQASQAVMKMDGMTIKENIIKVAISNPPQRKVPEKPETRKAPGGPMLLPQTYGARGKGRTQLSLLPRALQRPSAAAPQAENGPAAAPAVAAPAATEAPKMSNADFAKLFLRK

purified recombinant HEXIM1 protein (from UniProt O94992 1-359)
binding [1]: binds

HEXIM1, endogenous (from UniProt O94992 1-359)
binding [2]: binds

Cerulean.HEXIM1 and Venus.HEXIM1 (two differently tagged copies of wild-type HEXIM1) (from UniProt O94992 1-359)
binding [3]: binds

B1: HIV-1 Tat-interacting protein of 110 kDa (Tip110), endogenous (protein, UniProt Q15020 1-963)
chain: T3 sequence
binding [4]: binds

B2: recombinant Tip110 His (protein, UniProt Q15020 1-963)
chain: T3 sequence
binding [5]: binds

B3: GST-MEPCE fusion protein (protein, UniProt Q7L2J0 1-689)
chain: T1 sequence
binding [6]: binds
